This note sets out measurements from doi:10.1101/2020.06.07.139030.

Sequences of proteins named here, by UniProt entry; tags and fusion partners are left off.
UniProt Q8R3S6, whole entry: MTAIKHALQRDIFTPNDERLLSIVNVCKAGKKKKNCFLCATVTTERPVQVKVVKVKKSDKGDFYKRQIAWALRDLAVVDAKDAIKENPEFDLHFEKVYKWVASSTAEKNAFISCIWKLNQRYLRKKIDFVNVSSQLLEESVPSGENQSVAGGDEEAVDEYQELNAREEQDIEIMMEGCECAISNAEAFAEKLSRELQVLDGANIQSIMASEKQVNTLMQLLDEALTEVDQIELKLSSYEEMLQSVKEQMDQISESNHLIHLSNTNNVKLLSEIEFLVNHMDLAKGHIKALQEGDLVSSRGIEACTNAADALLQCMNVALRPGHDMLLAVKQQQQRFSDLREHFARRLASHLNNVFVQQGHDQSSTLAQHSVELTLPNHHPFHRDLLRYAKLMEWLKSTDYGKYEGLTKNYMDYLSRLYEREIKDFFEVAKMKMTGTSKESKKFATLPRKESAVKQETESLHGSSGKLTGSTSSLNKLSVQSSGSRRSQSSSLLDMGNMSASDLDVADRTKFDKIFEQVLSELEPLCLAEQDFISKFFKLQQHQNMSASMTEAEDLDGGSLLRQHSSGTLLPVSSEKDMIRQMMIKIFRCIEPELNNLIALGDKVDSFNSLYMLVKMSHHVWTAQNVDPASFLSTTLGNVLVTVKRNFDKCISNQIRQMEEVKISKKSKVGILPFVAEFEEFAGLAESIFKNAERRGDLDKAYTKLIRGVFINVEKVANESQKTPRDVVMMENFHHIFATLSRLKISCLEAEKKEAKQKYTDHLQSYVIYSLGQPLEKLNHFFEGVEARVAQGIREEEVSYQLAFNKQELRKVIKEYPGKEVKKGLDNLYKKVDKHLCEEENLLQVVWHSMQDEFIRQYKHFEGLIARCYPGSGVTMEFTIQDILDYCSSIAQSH

These are yes or no findings as the source states them, for the method shown. Binding seen in cells or lysates may run through a third protein. Some binding calls cover weakened binding; strength is not graded here. Tags and fused reporters may be left off the sequences shown.

In the experiment the target is T1, HA-tagged mouse STX2 (mouse) (UniProt Q00262).
T1 sequence: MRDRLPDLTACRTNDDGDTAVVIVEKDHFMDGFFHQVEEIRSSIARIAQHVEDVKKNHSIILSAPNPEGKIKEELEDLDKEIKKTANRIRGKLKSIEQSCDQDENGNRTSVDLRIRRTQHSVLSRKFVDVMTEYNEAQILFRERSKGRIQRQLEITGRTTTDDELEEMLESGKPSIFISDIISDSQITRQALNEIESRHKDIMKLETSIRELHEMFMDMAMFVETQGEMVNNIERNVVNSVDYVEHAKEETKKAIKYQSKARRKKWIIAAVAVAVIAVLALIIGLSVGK
Briefly: co-IP.

On to “FLAG-tagged mouse EXOC1 (from UniProt Q8R3S6 1-894)”, for which the binding result is “binds”.

B1: Myc-tagged mouse SNAP23 (protein, UniProt O09044 1-210)
chain: MDNLSPEEVQLRAHQVTDESLESTRRILGLAIESQDAGIKTITMLDEQGEQLNRIEEGMDQINKDMREAEKTLTELNKCCGLCICPCNRTKNFESGKNYKATWGDGGDNSPSNVVSKQPSRITNGQPQQTTGAASGGYIKRITNDAREDEMEENLTQVGSILGNLKNMALDMGNEIDAQNQQIQKITEKADTNKNRIDIANTRAKKLIDS
Turning to B1, the binding result is on record as “binds”.
